The assay has as its target murine galanin (mature, processed form) (murine) (UniProt P47212). Nature of the assay: epitope mapping.

Chains of the proteins cited; added tags and fusions are not shown. Residues count along the entry.
UniProt P47212, residues 33-61: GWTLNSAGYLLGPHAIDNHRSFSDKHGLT

These are yes or no findings as the source states them, for the method shown. Some binding calls cover weakened binding; strength is not graded here.

B1: murine monoclonal antibody 2H9 (antibody, mouse IgG1, V domains shown)
VH: EIQLQQSEAELVKPGASVRLSCATSGFNIKDYYIHWVKQTTEQGLEWIGRIDPEDGETEYAPKFQGKATIAADTSSNTAYLLLNSLSSEDTAVYYCTRGYASWGQGTTLTVSS
VL: DVLMTQTPLSLSVSLGDQASISCRSSQSFVHSDGNTYLEWYLQKSGQSPKLLIYKVSNRFSGVPDRFSGSGSGTDFTLKINRVEAEDLGVYYCFQGSHVPYTFGGGTKLEIKR
As for B1, the binding result is on record as “binds”.

(Values after patent US20050152896A1.)
